HELM strings list residues between dots; [ac] is acetyl, [am] amide, other brackets name non-standard units. One purity is given for all peptides; the source may state it once.
Columns and labels:
[1] = general procedure: peptide synthesis; MBHA resin; DCC, HOBt, BOP; conditions: whole synthesis, scale 0.45 mmol
[2] = Fmoc solid-phase peptide synthesis; DOD resin; DCC, HOBt, BOP; conditions: whole synthesis, UV 210 nm, scale 0.50 mmol
[3] = general procedure: peptide synthesis; PAM resin; DCC, HOBt, BOP; conditions: whole synthesis, UV 210 nm

PEPTIDE1{D.Y.[dW].V.[dW].[dW].A.[am]}$$$$V2.0
final HPLC purity ([1]; UV 210 nm): ≧ 99% | crude mass [1]: 0.250 g

PEPTIDE1{D.Y.[dW].V.[dW].[dW].K.[am]}$$$$V2.0
final HPLC purity [2]: ≧ 99%

PEPTIDE1{D.Y.[dW].V.[dW].[dW].R}$PEPTIDE1,PEPTIDE1,1:R1-7:R2$$$V2.0
final HPLC purity [3]: ≧ 99%

— patent EP0541662B1 (A. MENARINI INDUSTRIE FARMACEUTICHE RIUNITE S.R.L., priority 1990, dated 1992)
